In publication PMC12687436:
No constants are given. Whether binding was seen depends on the method and setting. Binding seen in cells or lysates may run through a third protein. These calls come from enrichment with a bait or labelling near it, and not all partners need be listed. Where a sequence is shown, tags or fusion partners need not be part of it.

By UniProt entry, the sequences of proteins in these tests, tags left out.
UniProt P09493: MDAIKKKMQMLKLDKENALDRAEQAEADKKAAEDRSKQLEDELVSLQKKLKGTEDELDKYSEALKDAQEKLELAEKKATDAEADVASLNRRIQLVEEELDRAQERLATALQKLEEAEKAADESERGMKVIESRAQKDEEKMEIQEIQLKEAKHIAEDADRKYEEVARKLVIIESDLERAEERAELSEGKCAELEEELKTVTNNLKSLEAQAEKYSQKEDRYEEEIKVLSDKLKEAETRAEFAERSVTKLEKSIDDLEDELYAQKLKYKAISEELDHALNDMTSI

Biological target: T1, Tetraspanin 4 (TSPAN4), HA-tagged, overexpressed in VSMCs (UniProt O14817)
T1 sequence: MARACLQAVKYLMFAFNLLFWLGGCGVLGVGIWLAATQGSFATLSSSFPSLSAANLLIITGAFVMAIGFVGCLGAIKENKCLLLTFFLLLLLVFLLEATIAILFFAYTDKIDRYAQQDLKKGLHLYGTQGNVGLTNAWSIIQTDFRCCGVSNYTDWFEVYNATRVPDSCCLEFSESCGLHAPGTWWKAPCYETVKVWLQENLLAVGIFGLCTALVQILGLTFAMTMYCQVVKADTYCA
Assay: affinity purification with mass spectrometry; HA-tag immunoprecipitation from lysates of VSMCs overexpressing HA-tagged TSPAN4 (IP lysis buffer: 150 mM KCl, 25 mM Tris pH 7.4, 5 mM EDTA, 0.5 mM DTT, 0.5% NP-40), overnight at 4°C; IgG antibody as control; SDS-PAGE, Coomassie staining, bands excised for mass spectrometry

binding: binds
Substance: Tropomyosin-1 (TPM1) (from UniProt P09493 1-284)
